# Measurements taken from the supplement of paper PMC4604168 (melanoma cell lines).
# The list shows a part of the results. Many values rest on one well or one pass, so single values are uncertain.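 Imaging used 1,536-well plates; nuclei positive for cleaved PARP by antibody were divided by total DNA-stained nuclei to yield the apoptosis fraction. Doses for screening kept most cells viable, and cell lines differ markedly in resting and induced cleaved-PARP levels.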
# Test system: WM3526
# Test: cleaved PARP positive nuclei fraction relative to DMSO control; melanoma cells; higher = more apoptosis
# Settings: library dose: low library concentration; 72 h
row,SMILES,cleaved PARP positive nuclei fraction [%]
1,"NC(=O)c1ccc(N(C(N)=O)c2c(F)cccc2F)nc1-c1ccc(F)cc1F + Nc1nc(F)nc2c1ncn2[C@@H]1O[C@H](CO)[C@@H](O)[C@@H]1O [fludarabine] (first compound 0.4 µM, partner dose 0.2 µM)",70.4
2,"Cn1sc(=O)n(Cc2ccccc2)c1=O + CNC(=O)c1cc(Oc2ccc(NC(=O)Nc3ccc(Cl)c(C(F)(F)F)c3)cc2)ccn1 [sorafenib] (first compound 0.4 µM, partner dose 0.4 µM)",20.2
3,"COc1ccc(C2=N[C@@H](c3ccc(Cl)cc3)[C@@H](c3ccc(Cl)cc3)N2C(=O)N2CCNC(=O)C2)c(OC(C)C)c1 [Nutlin-3] + CN(c1ncccc1CNc1nc(Nc2ccc3c(c2)CC(=O)N3)ncc1C(F)(F)F)S(C)(=O)=O [PF562271] (first compound 0.1 µM, partner dose 0.08 µM)",42.6
4,"CN(c1ncccc1CNc1nc(Nc2ccc3c(c2)CC(=O)N3)ncc1C(F)(F)F)S(C)(=O)=O + Cn1c(=O)n(-c2ccc(C(C)(C)C#N)cc2)c2c3cc(-c4cnc5ccccc5c4)ccc3ncc21 [NVP-BEZ235] (first compound 0.08 µM, partner dose 0.004 µM)",114
5,"Cn1sc(=O)n(Cc2ccccc2)c1=O + CCN(CC)CCNC(=O)c1c(C)[nH]c(/C=C2\C(=O)Nc3ccc(F)cc32)c1C [sunitinib] (first compound 0.4 µM, partner dose 0.4 µM)",31.2
6,"CC1(C)CCC(c2ccc(Cl)cc2)=C(CN2CCN(c3ccc(C(=O)NS(=O)(=O)c4ccc(N[C@H](CCN5CCOCC5)CSc5ccccc5)c(S(=O)(=O)C(F)(F)F)c4)cc3)CC2)C1 + Cc1nc(Nc2ncc(C(=O)Nc3c(C)cccc3Cl)s2)cc(N2CCN(CCO)CC2)n1 [dasatanib] (first compound 0.4 µM, partner dose 0.004 µM)",75.3
7,"Cn1cnc2c(F)c(Nc3ccc(Br)cc3Cl)c(C(=O)NOCCO)cc21 [selumetinib] + Cn1c(Nc2ccc(C(F)(F)F)cc2)nc2cc(Oc3ccnc(-c4ncc(C(F)(F)F)[nH]4)c3)ccc21 [CHIR265] (first compound 0.015 µM, partner dose 0.08 µM)",165
8,"C[C@@H](N)c1ccc(C(=O)Nc2ccnc3[nH]ccc23)cc1 + Nc1ncn([C@H]2C[C@H](O)[C@@H](CO)O2)c(=O)n1 [decitabine] (first compound 0.4 µM, partner dose 0.1 µM)",154
9,"CC1(C)CCC(c2ccc(Cl)cc2)=C(CN2CCN(c3ccc(C(=O)NS(=O)(=O)c4ccc(N[C@H](CCN5CCOCC5)CSc5ccccc5)c(S(=O)(=O)C(F)(F)F)c4)cc3)CC2)C1 + COCC[n+]1c2c(n(Cc3cnccn3)c1C)C(=O)c1ccccc1C2=O [YM155] (first compound 0.4 µM, partner dose 0.0004 µM)",56.5
10,"Cn1sc(=O)n(Cc2ccccc2)c1=O + CS(=O)(=O)CCNCc1ccc(-c2ccc3ncnc(Nc4ccc(OCc5cccc(F)c5)c(Cl)c4)c3c2)o1 [lapatinib] (first compound 0.4 µM, partner dose 0.8 µM)",75.9
11,"Cn1cnc2c(F)c(Nc3ccc(Br)cc3Cl)c(C(=O)NOCCO)cc21 [selumetinib] + Nc1nc(F)nc2c1ncn2[C@@H]1O[C@H](CO)[C@@H](O)[C@@H]1O [fludarabine] (first compound 0.015 µM, partner dose 0.2 µM)",530
12,"CS(=O)(=O)c1ccc(C(=O)Nc2ccc(Cl)c(-c3ccccn3)c2)c(Cl)c1 [vismodegib] + CC(C)C[C@H](NC(=O)[C@H](Cc1ccccc1)NC(=O)c1cnccn1)B(O)O [Bortezomib] (first compound 1 µM, partner dose 0.001 µM)",101
13,"CC1(C)CCC(c2ccc(Cl)cc2)=C(CN2CCN(c3ccc(C(=O)NS(=O)(=O)c4ccc(N[C@H](CCN5CCOCC5)CSc5ccccc5)c(S(=O)(=O)C(F)(F)F)c4)cc3)CC2)C1 + C=C(c1ccc(C(=O)O)cc1)c1cc2c(cc1C)C(C)(C)CCC2(C)C [Bexarotene] (first compound 0.4 µM, partner dose 2 µM)",273
14,"CS(=O)(=O)c1ccc(C(=O)Nc2ccc(Cl)c(-c3ccccn3)c2)c(Cl)c1 [vismodegib] + CC(=O)c1c(C)c2cnc(Nc3ccc(N4CCNCC4)cn3)nc2n(C2CCCC2)c1=O [palbociclib] (first compound 1 µM, partner dose 0.04 µM)",66.8

# Given with tabs: part of the list above.
row	SMILES	cleaved PARP positive nuclei fraction [%]
3	COc1ccc(C2=N[C@@H](c3ccc(Cl)cc3)[C@@H](c3ccc(Cl)cc3)N2C(=O)N2CCNC(=O)C2)c(OC(C)C)c1 [Nutlin-3] + CN(c1ncccc1CNc1nc(Nc2ccc3c(c2)CC(=O)N3)ncc1C(F)(F)F)S(C)(=O)=O [PF562271] (first compound 0.1 µM, partner dose 0.08 µM)	42.6
4	CN(c1ncccc1CNc1nc(Nc2ccc3c(c2)CC(=O)N3)ncc1C(F)(F)F)S(C)(=O)=O + Cn1c(=O)n(-c2ccc(C(C)(C)C#N)cc2)c2c3cc(-c4cnc5ccccc5c4)ccc3ncc21 [NVP-BEZ235] (first compound 0.08 µM, partner dose 0.004 µM)	114
5	Cn1sc(=O)n(Cc2ccccc2)c1=O + CCN(CC)CCNC(=O)c1c(C)[nH]c(/C=C2\C(=O)Nc3ccc(F)cc32)c1C [sunitinib] (first compound 0.4 µM, partner dose 0.4 µM)	31.2
